Test results taken from patent publication US20190041402A1 (GOVERNING COUNCIL OF THE UNIVERSITY OF TORONTO, published 2019).
Results are given in words; binding and its absence hold for the method and conditions named. Binding seen in cells or lysates may run through a third protein. Some results given as binding are weak or reduced against the parent protein; the word gives no strength. For some of these results: Tags and fused reporters may be left off the sequences shown.

Tests used:
[1] = target: T1, mouse αKlotho (endogenous or transgenic, serum, urine and kidney lysate) (mouse) (UniProt O35082); assay: immunoprecipitation (pull-down) from serum and urine
T1 sequence (looked up): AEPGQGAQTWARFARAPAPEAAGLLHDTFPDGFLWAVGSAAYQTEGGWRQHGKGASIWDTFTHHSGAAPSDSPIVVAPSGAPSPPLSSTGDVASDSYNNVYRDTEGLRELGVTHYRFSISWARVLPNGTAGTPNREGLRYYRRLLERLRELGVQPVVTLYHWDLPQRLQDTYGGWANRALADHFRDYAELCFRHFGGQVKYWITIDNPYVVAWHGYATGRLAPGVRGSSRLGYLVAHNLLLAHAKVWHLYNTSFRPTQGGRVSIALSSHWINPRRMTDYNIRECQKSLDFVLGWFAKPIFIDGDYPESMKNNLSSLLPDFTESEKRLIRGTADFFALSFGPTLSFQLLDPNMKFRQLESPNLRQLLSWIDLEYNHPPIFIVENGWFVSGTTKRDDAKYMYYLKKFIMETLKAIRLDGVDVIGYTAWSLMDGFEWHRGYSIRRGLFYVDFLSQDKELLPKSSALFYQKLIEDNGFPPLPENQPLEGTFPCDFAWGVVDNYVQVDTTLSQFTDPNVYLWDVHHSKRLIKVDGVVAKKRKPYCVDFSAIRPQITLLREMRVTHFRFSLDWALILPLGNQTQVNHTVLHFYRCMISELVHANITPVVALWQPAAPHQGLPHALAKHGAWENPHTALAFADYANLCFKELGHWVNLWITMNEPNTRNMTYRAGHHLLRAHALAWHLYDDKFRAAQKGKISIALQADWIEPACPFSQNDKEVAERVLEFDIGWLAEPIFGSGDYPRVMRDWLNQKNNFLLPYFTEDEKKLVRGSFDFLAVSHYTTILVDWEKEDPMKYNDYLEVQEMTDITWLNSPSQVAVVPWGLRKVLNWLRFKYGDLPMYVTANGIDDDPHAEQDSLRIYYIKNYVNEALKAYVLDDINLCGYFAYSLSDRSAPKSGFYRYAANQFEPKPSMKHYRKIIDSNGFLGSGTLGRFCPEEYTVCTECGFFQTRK

[2] = target: T2, human soluble αKlotho (endogenous, serum and urine) (human) (UniProt Q9UEF7); assay: as above
T2 sequence (looked up): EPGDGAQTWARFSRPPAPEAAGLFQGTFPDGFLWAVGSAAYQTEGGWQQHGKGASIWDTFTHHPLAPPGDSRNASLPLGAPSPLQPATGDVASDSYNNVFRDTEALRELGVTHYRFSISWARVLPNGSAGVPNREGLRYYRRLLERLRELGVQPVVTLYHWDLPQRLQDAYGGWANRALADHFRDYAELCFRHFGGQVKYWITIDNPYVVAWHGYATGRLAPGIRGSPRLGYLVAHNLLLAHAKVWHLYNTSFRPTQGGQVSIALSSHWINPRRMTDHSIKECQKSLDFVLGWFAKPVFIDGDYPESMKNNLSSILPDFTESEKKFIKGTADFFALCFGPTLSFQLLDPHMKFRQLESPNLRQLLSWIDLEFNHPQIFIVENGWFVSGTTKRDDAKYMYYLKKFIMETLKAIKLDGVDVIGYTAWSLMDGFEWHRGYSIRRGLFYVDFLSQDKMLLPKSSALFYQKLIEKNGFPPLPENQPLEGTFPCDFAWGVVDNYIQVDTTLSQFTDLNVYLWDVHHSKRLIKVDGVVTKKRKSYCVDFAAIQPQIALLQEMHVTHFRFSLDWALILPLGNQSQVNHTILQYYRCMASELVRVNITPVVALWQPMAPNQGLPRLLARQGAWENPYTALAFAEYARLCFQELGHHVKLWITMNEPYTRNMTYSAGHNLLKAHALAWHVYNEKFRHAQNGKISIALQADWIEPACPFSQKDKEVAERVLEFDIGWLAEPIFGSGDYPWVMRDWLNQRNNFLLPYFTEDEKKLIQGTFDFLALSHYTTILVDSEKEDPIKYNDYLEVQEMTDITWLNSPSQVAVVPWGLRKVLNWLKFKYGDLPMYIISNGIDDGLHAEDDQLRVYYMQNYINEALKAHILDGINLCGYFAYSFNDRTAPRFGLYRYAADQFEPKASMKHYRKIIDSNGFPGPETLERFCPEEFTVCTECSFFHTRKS

[3] = target: T3, extracellular domain of murine αKlotho with C-terminal FLAG tag, secreted by HEK293 cells (mouse) (UniProt O35082); assay: immunoprecipitation (pull-down) from culture medium
T3 sequence (looked up): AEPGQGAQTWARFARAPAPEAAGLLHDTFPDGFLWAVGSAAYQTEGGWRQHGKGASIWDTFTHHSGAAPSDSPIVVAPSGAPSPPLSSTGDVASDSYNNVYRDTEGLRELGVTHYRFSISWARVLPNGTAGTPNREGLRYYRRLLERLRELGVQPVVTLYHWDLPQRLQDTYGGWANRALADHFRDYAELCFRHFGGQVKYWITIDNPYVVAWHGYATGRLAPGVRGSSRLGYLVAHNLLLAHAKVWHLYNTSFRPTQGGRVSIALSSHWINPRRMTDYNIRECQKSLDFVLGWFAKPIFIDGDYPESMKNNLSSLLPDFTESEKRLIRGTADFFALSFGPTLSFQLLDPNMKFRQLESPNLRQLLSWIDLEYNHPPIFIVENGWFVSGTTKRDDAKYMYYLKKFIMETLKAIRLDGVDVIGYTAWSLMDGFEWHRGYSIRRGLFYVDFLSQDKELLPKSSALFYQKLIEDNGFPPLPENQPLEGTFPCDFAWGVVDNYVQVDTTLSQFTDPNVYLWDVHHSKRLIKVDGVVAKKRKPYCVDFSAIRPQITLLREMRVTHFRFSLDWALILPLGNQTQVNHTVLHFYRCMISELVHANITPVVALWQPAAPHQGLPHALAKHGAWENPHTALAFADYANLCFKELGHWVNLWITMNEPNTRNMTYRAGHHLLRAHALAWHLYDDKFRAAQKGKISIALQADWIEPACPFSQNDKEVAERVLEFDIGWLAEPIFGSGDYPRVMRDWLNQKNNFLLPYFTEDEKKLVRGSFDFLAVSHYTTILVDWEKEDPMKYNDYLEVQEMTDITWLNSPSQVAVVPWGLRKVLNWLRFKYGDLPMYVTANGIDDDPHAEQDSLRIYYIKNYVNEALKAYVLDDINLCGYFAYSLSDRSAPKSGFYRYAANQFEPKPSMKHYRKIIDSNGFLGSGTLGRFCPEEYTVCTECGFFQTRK

[4] = target: T4, full-length transmembrane murine αKlotho expressed in HEK293 cells (mouse) (UniProt O35082); assay: immunoprecipitation (pull-down) from cell lysate
T4 sequence (looked up): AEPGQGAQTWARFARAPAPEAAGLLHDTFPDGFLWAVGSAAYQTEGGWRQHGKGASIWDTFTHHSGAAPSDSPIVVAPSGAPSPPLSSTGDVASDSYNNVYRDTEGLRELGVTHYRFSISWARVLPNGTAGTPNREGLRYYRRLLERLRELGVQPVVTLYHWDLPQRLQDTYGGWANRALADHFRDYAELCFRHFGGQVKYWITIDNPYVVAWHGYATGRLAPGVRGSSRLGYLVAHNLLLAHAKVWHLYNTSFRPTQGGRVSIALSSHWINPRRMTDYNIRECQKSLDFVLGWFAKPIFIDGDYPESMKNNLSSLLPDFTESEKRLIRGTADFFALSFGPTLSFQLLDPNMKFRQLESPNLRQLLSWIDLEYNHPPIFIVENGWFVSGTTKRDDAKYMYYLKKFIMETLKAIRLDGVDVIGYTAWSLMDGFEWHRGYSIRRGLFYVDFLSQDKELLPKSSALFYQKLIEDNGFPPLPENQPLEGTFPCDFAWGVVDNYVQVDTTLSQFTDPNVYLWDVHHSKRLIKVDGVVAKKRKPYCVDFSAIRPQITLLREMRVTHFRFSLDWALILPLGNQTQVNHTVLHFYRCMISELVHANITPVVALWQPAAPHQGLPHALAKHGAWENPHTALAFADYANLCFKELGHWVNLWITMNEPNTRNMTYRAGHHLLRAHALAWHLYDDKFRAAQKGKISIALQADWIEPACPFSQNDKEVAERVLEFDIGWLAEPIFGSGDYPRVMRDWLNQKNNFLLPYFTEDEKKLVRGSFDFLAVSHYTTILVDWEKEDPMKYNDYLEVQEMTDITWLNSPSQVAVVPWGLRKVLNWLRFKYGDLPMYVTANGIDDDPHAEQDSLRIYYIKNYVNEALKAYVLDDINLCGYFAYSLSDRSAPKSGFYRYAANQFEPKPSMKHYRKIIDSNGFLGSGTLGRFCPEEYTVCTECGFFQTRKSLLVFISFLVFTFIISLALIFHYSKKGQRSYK

binding [1]: binds
binding [2]: binds
binding [3]: binds
binding [4]: binds
B1: sb106 IgG (antibody, V domains shown)
VH: EVQLVESGGGLVQPGGSLRLSCAASGFNISYYSIHWVRQAPGKGLEWVAYISPSYGYTSYADSVKGRFTISADTSKNTAYLQMNSLRAEDTAVYYCARYYVYASHGWAGYGMDYWGQGTLVTVSS
VL: DIQMTQSPSSLSASVGDRVTITCRASQSVSSAVAWYQQKPGKAPKLLIYSASSLYSGVPSRFSGSRSGTDFTLTISSLQPEDFATYYCQQAGYSPITFGQGTKVEIKR
notes: also called sb106 (48) full length IgG
